Reference: PubChem BioAssay AID504467 (National Center for Advancing Translational Sciences (NCATS), 2011)
The whole screen tested about 330,000 compounds, of which about 7,700 (2.3%) were called active. This list was built around the results that the source calls inconclusive (neither active nor inactive); the mix of calls is not that of the screen. The call rests on the fitted dose curve; in most records, active means well fitted inhibition curve with a large enough effect; inconclusive means small, poorly fitted or top-dose-only effect, or effect the other way; inactive means flat fitted curve, though single readings scatter. Where the call is inconclusive, the potency comes from a doubtful curve fit.

Assay: qHTS screen for small molecules that inhibit ELG1-dependent DNA repair in human embryonic kidney (HEK293T) cells expressing luciferase-tagged ELG1; further: nearly all actives have a fitted effect of over 55% in size
Conditions: HEK293T ELG1-luciferase reporter, luminescence, 16 h, DNA damage induced by 5-fluorouridine; series mostly up to 46.1 µM
In short: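 Step one: seed 2,000 cells per well. Step two: pin-transfer compound or DMSO alongside 5-fluorouridine. Step three: incubate 16 hr, 37 °C, 5% CO2. Step four: add ONE-Glo, wait 30 min, read luminescence.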
Potency means the concentration at half of the fitted maximal effect.

| SMILES | Potency |
| --- | --- |
| Fc1ccc(COc2ccc(-c3nnco3)cc2)cc1 | inconclusive: 20.6 µM [activator, partial curve] |
| NC(=S)N=Nc1c(O)n(CCCl)c2ccc(Br)cc12 | active: 14.6 µM |
| C[C@H](CO)N1C[C@H](C)[C@H](CN(C)Cc2ccc(Oc3ccccc3)cc2)Oc2ccc(NC(=O)Nc3cccc4ccccc34)cc2CC1=O | inconclusive: 20.6 µM [activator, partial curve, poor fit] |
| O=C(NCC1COc2ccccc2O1)c1ccc(Br)s1 (centres undefined) | inconclusive: 14.6 µM [activator, partial curve] |
| COc1cc2c(cc1OC)C(C)N(C(=O)Nc1cc(C)cc(C)c1)CC2 (centres undefined) | inconclusive: 11.6 µM [inhibitor, partial curve] |
| COc1cccc(/C=C2\C(=O)N(c3cccc(C)c3)C(=O)c3ccccc32)c1 | inconclusive: 20.6 µM [activator, single point] |
| Cc1cccc(NS(=O)(=O)c2ccc(-c3cnc(C4CC4)o3)cc2)c1 | inconclusive: 1.3 µM [inhibitor, full curve] |
| COc1cccc(NC(=O)c2cc(C(=O)Nc3cccc(OC)c3)n(C)n2)c1 | active: 13 µM |
| CCCCCCCCNc1ccccc1S(=O)(=O)NCc1ccccc1 | inactive |
| CCOc1cc(-c2cc(-c3ccc(N)cc3)nc(N)c2C#N)ccc1O | inconclusive: 29.1 µM [inhibitor, single point] |
| CN1C(=O)c2c(sc3c2CCCC3)NC1c1ccccc1O (centres undefined) | inconclusive: 11.2 µM [activator, partial curve, poor fit] |
| COc1cc(NC(=O)c2ccco2)c(OC)cc1NC(=O)CSc1nnc(-c2cccs2)n1C | inconclusive: 23.1 µM [inhibitor, partial curve] |
| Cc1cccc(C(=O)OC(C)CN2CCN(C)CC2)c1 (centres undefined) | inconclusive: 20.6 µM [activator, partial curve] |
| CCc1ccc2nc(NC(=O)c3cc(C)on3)sc2c1 | inconclusive: 17.8 µM [activator, partial curve, poor fit] |
| O=C(CN1C(=O)COc2ccccc21)NCCCN1CCOCC1 | inactive |
| CCOC(=O)c1ccc(-c2cccc(C(F)(F)F)c2)nc1C | inconclusive: 20.6 µM [activator, single point] |
| Cc1ccc(C(=O)NCc2n[nH]c(=S)n2-c2ccccc2)cc1[N+](=O)[O-] | inactive |
| O=C(CSc1nnc(NC2CC2)s1)c1ccc[nH]1 | inconclusive: 9.2 µM [activator, partial curve] |
| O=C(Nc1ccc2c(c1)CCC2)c1ccccc1Br | inconclusive: 5.8 µM [activator, partial curve] |
| Cc1ccc(/C=N/NC(=O)c2c(C)nc3ccc(Br)cn23)cc1 | inactive |
| O=C(CSc1ncn[nH]1)NCc1ccccc1Cl | inconclusive: 29.1 µM [activator, single point] |
| COc1ccc(S(=O)(=O)N2CCOCC2)cc1NC(=O)CNC(=O)c1cccs1 | inconclusive: 16.4 µM [activator, partial curve, poor fit] |
| Nc1n[nH]c(N)c1N=Nc1ccc2c(c1)OCO2 | inactive |

| SMILES | Potency |
| --- | --- |
| Cc1ccc(S(=O)(=O)N(CC(=O)N=Nc2c(O)[nH]c3ccccc23)c2cccc(C)c2)cc1 | active: 20.6 µM |
| N=c1n(CC(=O)c2cccs2)c2ccccc2n1Cc1ccccc1 | active: 7.3 µM |
| c1csc(CNCCCN2CCOCC2)c1 | inconclusive: 25.9 µM [activator, single point] |
| CCN(CC)C(=S)SCC(=O)c1ccc(Br)cc1 | inconclusive: 18.4 µM [activator, partial curve] |
| O=S(=O)(NCCN1CCOCC1)c1cc(Cl)c(Cl)cc1Cl | inactive |
| COc1ccc(C(=O)C2CCN(C(=O)Nc3ccccc3C)CC2)cc1 | inactive |
| COC(=O)c1cccc(C(=O)Nc2cnc3ccccc3c2)n1 | inconclusive: 20.6 µM [activator, partial curve, poor fit] |
| CCOC(=O)CC1(NC(=O)C2CCC(=O)N(CCc3ccccc3)C2)CCCCC1 (centres undefined) | inconclusive: 16.4 µM [activator, single point] |
| C/C(=N\NC(=O)c1cc(O)cc(O)c1)c1ccc(NC(=O)Cc2ccccc2)cc1 | inconclusive: 18.3 µM [activator, partial curve] |
| Cn1ccc(NC(=O)c2ccc([N+](=O)[O-])cc2)n1 | inactive |
| Cc1[nH]c2ccc(Cl)cc2c(=O)c1CN1CCCC1 | inconclusive: 29.1 µM [inhibitor, partial curve, poor fit] |
| O=C1c2ccccc2S(=O)(=O)N1CC1CC(c2ccccc2Cl)=NO1 (centres undefined) | inconclusive: 8.2 µM [activator, partial curve] |
| CC(C)CN(C(=O)c1cc(Cl)nc2ccccc12)c1c(N)n(Cc2ccccc2)c(=O)[nH]c1=O | inconclusive: 4.61 µM [activator, partial curve, poor fit] |
| Cc1c(C(=O)NC(C)c2ccccc2)c(-c2ccccc2)nn1-c1ccccc1 (centres undefined) | inactive |
| COc1cc(C(=O)NCCCNc2ccc([N+](=O)[O-])cc2)cc(OC)c1OC | inconclusive: 23.1 µM [inhibitor, single point] |
| O=C(Nc1cc(S(=O)(=O)N2CCCCC2)ccc1N1CCOCC1)c1cc(=O)[nH]c2ccccc12 | inconclusive: 20.6 µM [inhibitor, single point] |
| COc1ccc(C(=O)Nc2nnc(-c3cccs3)s2)cc1 | inconclusive: 0.461 µM [activator, full curve] |
| Cc1cc(C(=O)NC2CCCCC2)c(C)o1 | inconclusive: 29.1 µM [activator, single point] |
| COc1ccc(C(=O)Nc2ccncc2)c(OC)c1 | inconclusive: 23.1 µM [activator, partial curve, poor fit] |
| Cn1cnnc1SCc1nc(N)nc(Nc2ccccc2)n1 | inconclusive: 18.4 µM [activator, partial curve] |
| CN(Cc1ccccc1)C(=O)c1[nH]cnc1C(=O)Nc1ccccc1 | inconclusive: 0.82 µM [inhibitor, single point] |
| O=C1/C(=C/c2ccc([N+](=O)[O-])cc2)C=C(c2ccccc2)N1c1ccc(O)cc1 | inconclusive: 20.6 µM [inhibitor, partial curve] |
| Cc1nn(CC(=O)NC2CCS(=O)(=O)C2)c(C)c1S(=O)(=O)N(C)C (centres undefined) | inconclusive: 13 µM [activator, partial curve, poor fit] |

| SMILES | Potency |
| --- | --- |
| CC(C)Oc1cccc(C(=O)Nc2ccc(CN3CCOCC3)cc2)c1 | inconclusive: 32.6 µM [inhibitor, partial curve, poor fit] |
| COc1ccc(NS(=O)(=O)c2cc(N)ccc2N2CCCCC2)cc1 | inactive |
| CSc1cccc2sc(NC(=O)C3=COCCO3)nc12 | inconclusive: 18.3 µM [activator, partial curve, poor fit] |
| COCCCNC(=O)c1ccc(Cn2c(=O)c3ccccc3n(Cc3ccccc3C)c2=O)cc1 | inconclusive: 32.6 µM [inhibitor, single point] |
| CC(OC(=O)CCN=C1NS(=O)(=O)c2ccccc21)C(=O)Nc1ccc(S(N)(=O)=O)cc1 (centres undefined) | inactive |
| COc1ccc(NC(=O)c2c(-c3ccccc3Cl)noc2C)c(OC)c1 | active: 18.4 µM |
| CC(=O)N1c2ccc(S(=O)(=O)N3CCC(C(=O)NCCc4ccc(Cl)cc4)CC3)cc2CC1C (centres undefined) | inconclusive: 10.3 µM [inhibitor, partial curve] |
| CC(C)C[C@@H](CO)N1CCN(Cc2cccnc2)CCC1=O | inconclusive: 0.82 µM [activator, full curve] |
| Cc1cc(=O)[nH]c(SCc2nnc(-c3ccccc3)o2)n1 | inconclusive: 20.6 µM [activator, single point] |
| CN(C(=O)CSc1nc2c(cnn2-c2ccccc2)c(=O)[nH]1)C1CCS(=O)(=O)C1 (centres undefined) | inactive |
| COc1ccc(CCC(C)NC(=O)Cc2ccc(OC)c(OC)c2)c(OC)c1 (centres undefined) | active: 18.3 µM |
| O=C(CSc1nnc(NC(=O)C2CC2)s1)Nc1ccccc1Cl | inactive |
| O=C(COc1ccc([N+](=O)[O-])cc1)NNC(=O)Nc1cccc(F)c1 | inactive |
| COc1ccc(OCCSc2nc3ccccc3n2CCC(=O)O)cc1 | inactive |
| COc1ccc(C(=O)NCCCOC(C)C)cc1OC1CCN(C(C)=O)CC1 | inconclusive: 23.1 µM [activator, partial curve] |
| Cc1ccc(Nc2cc(C)nc(N3CCOCC3)n2)cc1 | inconclusive: 13 µM [activator, partial curve] |
| CCC(=O)N1CCN(c2ccccc2NC(=O)COc2cccc(C)c2)CC1 | inconclusive: 23.1 µM [inhibitor, partial curve, poor fit] |
| CCOC(=O)c1ccc(Cl)c(NC(=O)c2ccc(-c3ccccc3)cc2)c1 | inactive |
| O=C(C1CCCN(S(=O)(=O)c2cccc3nonc23)C1)N1CCN(c2ccccc2Cl)CC1 (centres undefined) | active: 23.1 µM |
| COC(=O)c1ccccc1NC(=O)CSc1nnnn1-c1ccc(C)cc1C | inconclusive: 16.4 µM [inhibitor, partial curve] |
| O=C(Nc1ccc(Cl)cc1)c1cc(S(=O)(=O)N2CCOCC2)cs1 | active: 14.6 µM |
| O=C(c1ccco1)N1CCCN(Cc2cn[nH]c2-c2ccc(-c3ccccc3)cc2)CC1 | inconclusive: 5.8 µM [activator, partial curve, poor fit] |
| CC(O)CNCCCCOc1ccc(OCc2ccccc2)cc1 (centres undefined) | inconclusive: 20.6 µM [activator, partial curve] |

Quoted at random: 5 compounds from above.

| SMILES | Potency |
| --- | --- |
| O=C(c1ccco1)N1CCCN(Cc2cn[nH]c2-c2ccc(-c3ccccc3)cc2)CC1 | inconclusive: 5.8 µM [activator, partial curve, poor fit] |
| Cc1cc(=O)[nH]c(SCc2nnc(-c3ccccc3)o2)n1 | inconclusive: 20.6 µM [activator, single point] |
| COc1ccc(NS(=O)(=O)c2cc(N)ccc2N2CCCCC2)cc1 | inactive |
| COc1ccc(CCC(C)NC(=O)Cc2ccc(OC)c(OC)c2)c(OC)c1 (centres undefined) | active: 18.3 µM |
| COc1ccc(C(=O)NCCCOC(C)C)cc1OC1CCN(C(C)=O)CC1 | inconclusive: 23.1 µM [activator, partial curve] |
